Reference: PMC8384837
Numbering of substitutions follows the chain as printed. This is one part of the list. For some assays here: At the low end of the ranking the order means little. For some assays here: The source does not settle which construct or isoform was used.

Key:
Details in all cases: yeast three-hybrid, YBZ-1, SC-Leu-His + 0.5 mM 3-AT, 4 days
[1] = molecular target: T1, PUM1 PUF domain R1-QFR R2-VFQ R7-NPG S863Q + R864F + Q867R + N899V + Y900F + S1079N + N1080P + E1083G (UniProt Q14671)
T1 sequence: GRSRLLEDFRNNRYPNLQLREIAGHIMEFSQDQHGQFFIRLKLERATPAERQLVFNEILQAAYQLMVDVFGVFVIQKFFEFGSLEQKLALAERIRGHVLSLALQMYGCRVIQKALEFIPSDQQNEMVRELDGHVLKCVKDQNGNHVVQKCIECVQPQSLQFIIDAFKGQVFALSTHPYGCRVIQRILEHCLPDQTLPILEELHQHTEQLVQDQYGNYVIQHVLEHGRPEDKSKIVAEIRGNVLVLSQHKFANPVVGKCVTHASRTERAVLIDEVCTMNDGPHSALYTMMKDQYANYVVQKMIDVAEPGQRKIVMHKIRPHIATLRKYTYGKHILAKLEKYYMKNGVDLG

[2] = molecular target: T2, PUM1 PUF domain R3-THE R4-TFR C935T + R936H + Q939E + N971T + H972F + Q975R (UniProt Q14671)
T2 sequence: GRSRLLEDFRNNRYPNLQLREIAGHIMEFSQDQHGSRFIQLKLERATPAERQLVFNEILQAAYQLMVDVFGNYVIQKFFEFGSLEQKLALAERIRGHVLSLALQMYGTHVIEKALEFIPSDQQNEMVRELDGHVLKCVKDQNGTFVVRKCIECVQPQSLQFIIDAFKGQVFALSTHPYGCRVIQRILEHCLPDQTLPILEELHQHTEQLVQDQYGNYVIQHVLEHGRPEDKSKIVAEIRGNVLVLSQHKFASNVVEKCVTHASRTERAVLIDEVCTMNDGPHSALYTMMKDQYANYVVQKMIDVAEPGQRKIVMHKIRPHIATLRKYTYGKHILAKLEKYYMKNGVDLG

[3] = molecular target: T3, PUM1 PUF domain R5-PHQ R6-SWD C1007P + R1008H + N1043S + Y1044W + Q1047D (UniProt Q14671)
T3 sequence: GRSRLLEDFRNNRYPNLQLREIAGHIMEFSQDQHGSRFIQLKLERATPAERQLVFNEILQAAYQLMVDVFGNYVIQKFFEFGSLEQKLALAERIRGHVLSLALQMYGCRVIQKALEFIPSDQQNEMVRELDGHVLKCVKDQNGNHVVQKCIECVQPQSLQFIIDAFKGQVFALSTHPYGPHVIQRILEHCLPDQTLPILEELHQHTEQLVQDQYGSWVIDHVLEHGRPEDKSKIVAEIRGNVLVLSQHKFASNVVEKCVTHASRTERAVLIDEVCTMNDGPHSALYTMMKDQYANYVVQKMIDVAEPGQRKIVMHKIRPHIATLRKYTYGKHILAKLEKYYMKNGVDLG

[4] = molecular target: T4, PUM1 PUF domain R3-THE R4-TFR R7-NPG C935T + R936H + Q939E + N971T + H972F + Q975R + S1079N + N1080P + E1083G (Homo sapiens) (UniProt Q14671)
T4 sequence: T2 sequence with S252N, N253P, E256G

[5] = molecular target: T5, PUM1 PUF domain R6-SWD R7-NPG N1043S + Y1044W + Q1047D + S1079N + N1080P + E1083G (Homo sapiens) (UniProt Q14671)
T5 sequence: T3 sequence with P180C, H181R, S252N, N253P, E256G

[6] = molecular target: T6, PUM1 PUF domain R3-THE R4-TFR R7-NPG C935T + R936H + Q939E + N971T + H972F + Q975R + S1079N + N1080P + E1083G (UniProt Q14671)
T6 sequence: T2 sequence with S252N, N253P, E256G

Sequence: GGCUAGAACUAGUGGAUCCCCCGGCGCCCGGCGGCUCGAGCCCGGGUAAGUUAAAGUAGUCUGCAUGCCGCCGGGCGCCAUGCCUGCAGGUCGACUCUAGAAAACAUG
- binding signal (log2 enrichment (interaction score)) [1]: < -6.44
- binding signal (log2 enrichment (interaction score)) [2]: -7.27
- binding signal (log2 enrichment (interaction score)) [3]: -7.74

Sequence: GGCUAGAACUAGUGGAUCCCCCGGCGCCCGGCGGCUCGAGCCCGGGUAAGUGUACAUUGUCUGCAUGCCGCCGGGCGCCAUGCCUGCAGGUCGACUCUAGAAAACAUG
- binding signal (log2 enrichment (interaction score)) [1]: -6.94
- binding signal (log2 enrichment (interaction score)) [2]: -6.31
- binding signal (log2 enrichment (interaction score)) [3]: -8.4

Sequence: GGCUAGAACUAGUGGAUCCCCCGGCGCCCGGCGGCUCGAGCCCGGGUAAGUGUCAGUAGUCUGCAUGCCGCCGGGCGCCAUGCCUGCAGGUCGACUCUAGAAAACAUG
- binding signal (log2 enrichment (interaction score)) [1]: -5.01
- binding signal (log2 enrichment (interaction score)) [2]: -7.06
- binding signal (log2 enrichment (interaction score)) [4]: -1.39
- binding signal (log2 enrichment (interaction score)) [3]: < -7.89

Sequence: GGCUAGAACUAGUGGAUCCCCCGGCGCCCGGCGGCUCGAGCCCGGGUAAGUUGAUGUCGUCUGCAUGCCGCCGGGCGCCAUGCCUGCAGGUCGACUCUAGAAAACAUG
- binding signal (log2 enrichment (interaction score)) [1]: -5.89
- binding signal (log2 enrichment (interaction score)) [2]: -7.02
- binding signal (log2 enrichment (interaction score)) [4]: -1.6
- binding signal (log2 enrichment (interaction score)) [3]: -7.13

Sequence: GGCUAGAACUAGUGGAUCCCCCGGCGCCCGGCGGCUCGAGCCCGGGUAAGUUUAUUUCGUCUGCAUGCCGCCGGGCGCCAUGCCUGCAGGUCGACUCUAGAAAACAUG
- binding signal (log2 enrichment (interaction score)) [1]: -6.56
- binding signal (log2 enrichment (interaction score)) [2]: -7.7

Sequence: GGCUAGAACUAGUGGAUCCCCCGGCGCCCGGCGGCUCGAGCCCGGGUAAGUUUAGGUGGUCUGCAUGCCGCCGGGCGCCAUGCCUGCAGGUCGACUCUAGAAAACAUG
- binding signal (log2 enrichment (interaction score)) [1]: < -7.26
- binding signal (log2 enrichment (interaction score)) [2]: -6.65

Sequence: GGCUAGAACUAGUGGAUCCCCCGGCGCCCGGCGGCUCGAGCCCGGGUAAGCUUACAUAGUCUGCAUGCCGCCGGGCGCCAUGCCUGCAGGUCGACUCUAGAAAACAUG
- binding signal (log2 enrichment (interaction score)) [1]: -5.81
- binding signal (log2 enrichment (interaction score)) [2]: -7.5
- binding signal (log2 enrichment (interaction score)) [4]: -0.75
- binding signal (log2 enrichment (interaction score)) [3]: -7.46

Sequence: GGCUAGAACUAGUGGAUCCCCCGGCGCCCGGCGGCUCGAGCCCGGGUAAGAUGGCGUCGUCUGCAUGCCGCCGGGCGCCAUGCCUGCAGGUCGACUCUAGAAAACAUG
- binding signal (log2 enrichment (interaction score)) [1]: -6.42
- binding signal (log2 enrichment (interaction score)) [2]: -6.87
- binding signal (log2 enrichment (interaction score)) [4]: -1.51

Sequence: GGCUAGAACUAGUGGAUCCCCCGGCGCCCGGCGGCUCGAGCCCGGGUAAGUGGAAGUAGUCUGCAUGCCGCCGGGCGCCAUGCCUGCAGGUCGACUCUAGAAAACAUG
- binding signal (log2 enrichment (interaction score)) [1]: -6.19
- binding signal (log2 enrichment (interaction score)) [2]: -6.66
- binding signal (log2 enrichment (interaction score)) [4]: -1.56
- binding signal (log2 enrichment (interaction score)) [3]: -4.7
- binding signal (log2 enrichment (interaction score)) [5]: -0.74

Sequence: GGCUAGAACUAGUGGAUCCCCCGGCGCCCGGCGGCUCGAGCCCGGGUAAGCCGACAUUGUCUGCAUGCCGCCGGGCGCCAUGCCUGCAGGUCGACUCUAGAAAACAUG
- binding signal (log2 enrichment (interaction score)) [1]: < -6.16
- binding signal (log2 enrichment (interaction score)) [2]: -7.59
- binding signal (log2 enrichment (interaction score)) [6]: -2.35
- binding signal (log2 enrichment (interaction score)) [3]: < -7.77

Sequence: GGCUAGAACUAGUGGAUCCCCCGGCGCCCGGCGGCUCGAGCCCGGGUAAGUCUAGGUAGUCUGCAUGCCGCCGGGCGCCAUGCCUGCAGGUCGACUCUAGAAAACAUG
- binding signal (log2 enrichment (interaction score)) [1]: < -5.58
- binding signal (log2 enrichment (interaction score)) [2]: -6.77
- binding signal (log2 enrichment (interaction score)) [4]: -1.19
- binding signal (log2 enrichment (interaction score)) [3]: -7.44
- binding signal (log2 enrichment (interaction score)) [5]: -0.43

Sequence: GGCUAGAACUAGUGGAUCCCCCGGCGCCCGGCGGCUCGAGCCCGGGUAAGUUGGCGAAGUCUGCAUGCCGCCGGGCGCCAUGCCUGCAGGUCGACUCUAGAAAACAUG
- binding signal (log2 enrichment (interaction score)) [1]: -5.05
- binding signal (log2 enrichment (interaction score)) [2]: -6.08

Sequence: GGCUAGAACUAGUGGAUCCCCCGGCGCCCGGCGGCUCGAGCCCGGGUAAGUGUAAACCGUCUGCAUGCCGCCGGGCGCCAUGCCUGCAGGUCGACUCUAGAAAACAUG
- binding signal (log2 enrichment (interaction score)) [1]: -3.18
- binding signal (log2 enrichment (interaction score)) [2]: < -7.14
- binding signal (log2 enrichment (interaction score)) [4]: < -1.16
- binding signal (log2 enrichment (interaction score)) [3]: -8.7

Sequence: GGCUAGAACUAGUGGAUCCCCCGGCGCCCGGCGGCUCGAGCCCGGGUAAGUAUCCUUAGUCUGCAUGCCGCCGGGCGCCAUGCCUGCAGGUCGACUCUAGAAAACAUG
- binding signal (log2 enrichment (interaction score)) [1]: -7.1
- binding signal (log2 enrichment (interaction score)) [2]: < -7.47

Sequence: GGCUAGAACUAGUGGAUCCCCCGGCGCCCGGCGGCUCGAGCCCGGGUAAGGGGUAAUAGUCUGCAUGCCGCCGGGCGCCAUGCCUGCAGGUCGACUCUAGAAAACAUG
- binding signal (log2 enrichment (interaction score)) [1]: < -6.38
- binding signal (log2 enrichment (interaction score)) [2]: < -7.63
- binding signal (log2 enrichment (interaction score)) [3]: < -7.77

Sequence: GGCUAGAACUAGUGGAUCCCCCGGCGCCCGGCGGCUCGAGCCCGGGUAAGUAGAAGCAGUCUGCAUGCCGCCGGGCGCCAUGCCUGCAGGUCGACUCUAGAAAACAUG
- binding signal (log2 enrichment (interaction score)) [1]: -5.6
- binding signal (log2 enrichment (interaction score)) [2]: -7.24
- binding signal (log2 enrichment (interaction score)) [3]: < -7.85

Sequence: GGCUAGAACUAGUGGAUCCCCCGGCGCCCGGCGGCUCGAGCCCGGGUAAGUGGAAUAAGUCUGCAUGCCGCCGGGCGCCAUGCCUGCAGGUCGACUCUAGAAAACAUG
- binding signal (log2 enrichment (interaction score)) [1]: -5.9
- binding signal (log2 enrichment (interaction score)) [2]: < -5.87
- binding signal (log2 enrichment (interaction score)) [3]: -4.95

Sequence: GGCUAGAACUAGUGGAUCCCCCGGCGCCCGGCGGCUCGAGCCCGGGUAAGUCUAAAAAGUCUGCAUGCCGCCGGGCGCCAUGCCUGCAGGUCGACUCUAGAAAACAUG
- binding signal (log2 enrichment (interaction score)) [1]: -5.52
- binding signal (log2 enrichment (interaction score)) [2]: -6.8
- binding signal (log2 enrichment (interaction score)) [3]: -9.26

Sequence: GGCUAGAACUAGUGGAUCCCCCGGCGCCCGGCGGCUCGAGCCCGGGUAAGUUGACCAAGUCUGCAUGCCGCCGGGCGCCAUGCCUGCAGGUCGACUCUAGAAAACAUG
- binding signal (log2 enrichment (interaction score)) [1]: -6.17
- binding signal (log2 enrichment (interaction score)) [2]: < -6.86
- binding signal (log2 enrichment (interaction score)) [5]: -0.82
